# Library screen at single concentrations

Mtb cholesterol medium: 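Phenotypic screen: M. tuberculosis growth, cholesterol and DPPC medium, 4 days; the read-out is not stated. Concentration: 50 µM. Higher reads as more growth inhibition (inferred: compounds with an IC50 in retests scored well above the rest). About 69,000 compounds were tested under these conditions; 0.54% (about 370) showed 50% or more at least once.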
Mtb glucose medium: 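Whole-cell growth test on Mycobacterium tuberculosis, read after 3 days in glucose-containing 7H9 medium; the read-out is not stated. Tested at 50 µM. The record gives no direction; compounds that gave an IC50 in retests scored well above the rest, so higher reads as more growth inhibition. Of about 69,000 compounds tested this way, about 760 (1.1%) reached 50% or more in at least one test.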

Results are given as percent effect.
How 0% and 100% were set is not recorded. Most values in the screen are low, and negative values occur.
The compounds are a random part of those screened.
Two or more numbers in one place are separate tests of the same structure; such repeats can differ widely.

| structure | Mtb cholesterol medium | Mtb glucose medium |
|---|---|---|
| `O=C(O)CCNC(=O)C1(c2cccc(Br)c2)CCOCC1` | -10.82 | 11.26 |
| `CN1CCCC2(CCN(c3cc(C(F)(F)F)nc(N(C)C)n3)C2)C1=O` (stereo not drawn) | -10.75 | -2.927 & 10.8 |
| `CS(=O)(=O)N1CCCC(c2cccc(-c3ccccc3F)n2)C1` (stereo not drawn) | 0.7469 & 4.152 | -3.395 |
| `Cn1ccnc1CN1CCCN(C(=O)CC(C2CC2)C2CC2)CC1` | -0.1184 | 17.35 |
| `N#Cc1ccc(F)c(CN(CC(=O)N2CCCC2)CC2CCCO2)c1` (stereo not drawn) | -1.445 | -3.122 |
| `[H][C@@]12OCCN(C(=O)C3CCOCC3)[C@@]1([H])CC[C@@H]2OCC1CC1` | 2.205 | 5.567 |
| `Cc1cccc(CNC(Cn2cncn2)c2ccccc2)c1C` (stereo not drawn) | 3.26 | 2.416 |
| `c1sc(C2CCCC2)nc1CN1CCn2c(nnc2C2CC2)C1` | -1.624 | -24.95 |
| `[H][C@]12CNC[C@@]1(C(=O)NCc1cccc3[nH]ccc13)CN(C(=O)COC)C2` | -2.986 & -25.62 | 11.99 |
| `COc1ccc(OC)c(C2SCC(=O)Nc3n[nH]cc32)c1` (stereo not drawn) | -0.7661 | 28.43 |
| `Cc1cc(C)n(CC2CCCN2C(=O)c2cc[nH]n2)n1` (stereo not drawn) | 1.825 | 17.53 |
| `Cc1nc(N2CCN(C(=O)c3ccccc3)CC2)cc(-n2ccnc2)n1` | 34.08 & 15.27 | 40.82 |
| `CC(C)(C)n1cc(NCc2cscn2)cn1` | 1.617 | 2.611 |
| `N[C@@H]1c2ccccc2C2(CCN(C(=O)c3ccc(CO)o3)CC2)[C@H]1O` | -10.52 | 21.74 |
| `Cc1nc(C)c(C(=O)N2CCCc3c(F)cccc32)o1` | -4.507 | 6.35 & 6.398 |
| `Cc1cc(C)n(-c2ccc(C(=O)NCc3cncn3CC(C)C)cc2)n1` | -5.819 & 3.901 | 16.72 & 8.892 |
| `CC(C)N(CC(N)=O)C(=O)c1cc(F)ccc1N1CCN(C)CC1` | -3.125 | -10.07 |
| `CCN1CCN(C(=O)CCC2CCN(C(=O)CCSC)CC2)CC1` | 13.36 | 18.29 |
| `Cc1ccc(C2CCCN2Cc2nc(-c3ccco3)no2)cc1` (stereo not drawn) | 40.26 | 48.49 & 16.52 |
| `O=C1CCc2cc(C(=O)NCc3ccc(-n4cncn4)nc3)ccc2N1` | -15.16 | -15.56 |
| `[H][C@@]12C[C@@H](OCCOC)CN1CCN(C(=O)c1cccnc1)C2` | 9.977 | -11.74 & -3.625 |
| `Cc1cc(C)cc(C(=O)N2CCN(C(=O)N(C)C)CC2(C)C)c1` | -14.43 | -5.419 |
| `CC(c1ccncc1)N(C)C(=O)NCCOc1ccc(C#N)cc1` (stereo not drawn) | 19.77 | -0.6921 |
| `CCn1nc(C)c(CNC(=O)c2cn(CCC3CCCCN3)nn2)c1C` (stereo not drawn) | -19.37 | 2.962 |
| `Cn1c(CN2CCCC(Cn3cncn3)C2)nc2ccccc21` (stereo not drawn) | -24.38 | -55.89 |
| `O=C(O)C(F)(F)F.[H][C@@]12COC[C@]1(CNC(=O)N1CCCC1)CN(Cc1cc(C)on1)C2` | 3.598 | 25.49 |
| `Cl.[H][C@@]12OCCC[C@]1([H])NC[C@H]2NC(=O)c1cnccn1` | -1.415 | 23.58 |
| `CCn1cc2c(n1)C(COCC1CC1)CN(C(=O)c1ccsc1)C2` (stereo not drawn) | 18.76 | 4.745 & 1.204 |
| `COc1ccc(CN2CC[C@H](O)[C@@H]2Cc2cnn(C)c2)cc1.O=C(O)C(F)(F)F` | -14.55 & -9.204 | -39.2 |
| `CNc1nc(C(=O)N2CCN(c3ccc(Cl)c(Cl)c3)CC2)cs1` | 1.335 | 12.62 & -4.107 |
| `CN(C)CCN(CC1CCCO1)C(=O)Cc1cn2ccccc2n1` (stereo not drawn) | -19.03 | -49.17 |
| `CCN(CC)C(=O)c1ccn(COc2cc(C)cc(C)c2)n1` | 5.545 | 19.54 |
| `O=C(c1cnn[nH]1)N(CCCO)Cc1cccnc1` | -8.123 & -5.057 | 13.28 |
| `O=C(Cn1c(=O)oc2ccccc21)NCC1(O)CCc2ccccc2C1` (stereo not drawn) | -26.11 | -5.825 |
| `CCc1nnc(CN2CCc3ccc(S(N)(=O)=O)cc32)o1` | -2.867 | -8.384 |
| `O=C(O)C(F)(F)F.O=C(O)C(F)(F)F.[H][C@]12CCN(Cc3cccs3)[C@@]1([H])CC[C@@H](COc1cccnc1)O2` | 7.079 | 6.577 |
| `CCc1nc(C2CCCN2Cc2nccn2CC(F)(F)F)no1` (stereo not drawn) | -17.43 | -13.43 |
| `Cc1cc(CN2CCN(C(=O)NCc3csc(C)n3)CC2)on1` | 8.776 | 27.72 |
| `[H][C@]12CN(C(=O)c3ccc(C#N)nc3)CC[C@@]1(O)CCN(C(=O)N(C)C)C2` | 1.64 | -25.54 |
| `CC1CN(C)CCN1C(=O)NCCCn1ccnc1` (stereo not drawn) | -7.54 | -12.91 |
| `CC[C@H](C)[C@H](N)C(=O)Nc1nc(-c2cnc(N3CCOCC3)nc2)cs1` | 4.982 | 29.45 |
| `CC(NC(=O)NCCc1ccc(Cl)s1)c1ccccn1` (stereo not drawn) | -19.82 | -19.57 |
| `COc1ccccc1S(=O)(=O)N1CCC2(CC1)[C@H](O)C[C@@H]2O` | 1.171 | -1.421 & 6.361 |
| `CCn1ccnc1CN(C)CC1CCCN1c1cccnn1` (stereo not drawn) | -27.14 | -20.06 |
| `O=C(O)C(F)(F)F.[H][C@@]12C[C@@H](OCC)CN1CCN(S(=O)(=O)c1cccs1)C2` | -23.89 | -10.53 |
| `Cc1cc(C)c2cc(CNCc3ccc(C)o3)c3nn(C)c(=O)n3c2c1` | 3.473 | 6.337 |
| `O=C(c1ccc(F)c(F)c1)N1CCC[C@]2(C[C@@H](OCC3CC3)CO2)C1` | -0.4323 & 0.8102 | -14.25 |
| `[H][C@@]12C[C@@H](c3ccnc(C)n3)O[C@]1([H])CN(S(=O)(=O)c1ccccc1)C2` | 8.382 | 12.6 |
| `CC(C)C1CN(S(=O)(=O)c2cccc(C#N)c2)CCS1` (stereo not drawn) | -2.381 | -7.113 & 11.81 |
| `O=C(CN1CCCCC1Cn1cccn1)NC1CCN(C2CC2)CC1` (stereo not drawn) | 19.41 | 13.32 |
| `O=C(COc1cccc(F)c1)N1C[C@@H](O)[C@H](N2CCCC2)C1` | -19.28 | 12.47 |
| `Cc1sc(-c2ccco2)nc1C(=O)N1CCCC1Cn1cccn1` (stereo not drawn) | 4.951 | 4.88 |
| `Cc1cc(C)n(CC2CCCN2Cc2cscn2)n1` (stereo not drawn) | 35.9 | -2.8 |
| `Cc1ccccc1-c1cncc(C2CCN(CC(=O)N(C)C)CC2)n1` | 6.046 | -3.969 |
| `CC(C)N(C)Cc1cnc2n1CCN(C(=O)NC1CCCC1)C2.O=C(O)C(F)(F)F` | -4.891 | 13.7 |
| `N#Cc1cc(S(N)(=O)=O)ccc1NC1CCc2c(F)cccc21` (stereo not drawn) | 9.625 | -2.891 |
| `O=C(O)C(F)(F)F.[H][C@@]12CO[C@@H](CNC(=O)c3nccn3C)[C@]1([H])CCN(C)C2` | -18.42 | -16.23 |
| `CN(C)C(=O)Cn1c2c(ccc1=O)CC(NCc1cccnc1)CC2` (stereo not drawn) | 8.236 | -10.76 & -0.3515 |
| `CC(=O)N1CCCC1c1ccc(Br)cn1` (stereo not drawn) | -3.033 & -10.75 | -21.62 |
| `Cc1ccnc(N2Cc3cnn(Cc4ccc(F)cc4)c3C2)n1` | 13.16 & 18.82 | 36.19 |
| `CC(C)NC(=O)C[C@@H]1CCNC[C@@H]1Cc1cc(-c2ccccc2)on1` | 15.03 | 16.67 & -3.442 |
| `CC(C)C(=O)N1CCN(CCOc2cccc(C#N)c2)CC1` | 4.839 | 1.33 |
| `Cl.NCC1CCC(c2c(C(=O)NCCO)sc3ccccc23)CC1` (stereo not drawn) | -1.15 | 8.582 |
| `Cc1ccccc1-n1cc(C2=CCN(CCN3CCOCC3)CC2)cn1` | -9.41 & -3.012 | 9.711 |
| `Cc1cnc(N2C(=O)CSC2c2ccccc2)s1` (stereo not drawn) | 3.348 | 8.805 & 26.29 |
| `CN(Cc1noc(C2CC2)n1)C1CCN(CCn2cccn2)C1` (stereo not drawn) | -14.61 | 0.5084 |
| `O=C(O)C(F)(F)F.O=C(O)C(F)(F)F.O=C(O)C(F)(F)F.[H][C@@]12COC[C@]1(CN(C)C)CN(Cc1ccc3ccccc3n1)C2` | -9.87 | 20.53 |
| `N#CCCN(Cc1ccccn1)C(=O)c1cccc(CN2CCCC2)c1` | 12.69 | 7.323 |
| `CCN1CCC(NC(=O)CN2CCCC2Cn2cccn2)CC1` (stereo not drawn) | -13.17 & -8.572 | -6.727 |
| `CC1(C)CC1(C(=O)N1CC(c2cccnc2)C1)c1ccc(F)cc1` (stereo not drawn) | -19.89 | -67.31 & -4.243 |
| `O=C(O)C(F)(F)F.[H][C@@]12C[C@H](c3nc(C)cs3)O[C@@]1([H])CCN(Cc1cc(C)on1)C2` | -6.349 | -34.44 |
| `Cc1[nH]ncc1CCCNC(=O)N1CCC(C(N)=O)CC1` | -7.281 | -3.487 |
| `Cc1nc(N2CCCC2)ncc1-c1cc(O)n2ncnc2n1` | 1.59 | 27.29 |
| `[H][C@@]12CS(=O)(=O)C[C@]1([H])N(C(=O)c1cccc(C)n1)CCN2CCC` | -91.13 | -35.42 |
| `Cc1cc(NC(=O)C(C)Nc2cccc(COCc3ccco3)c2)no1` (stereo not drawn) | 6.525 | 29.1 |
| `CCn1nc(C)c2nc(C(C)C)nc(N3CCOCC3)c21` | -13.07 | -21.13 |
| `CSCCCNC(=O)c1coc(Cn2cnc3ccccc32)n1` | 0.08192 | 0.5298 & -12.95 |
| `CCN1CC(COC(=O)c2cccc(Br)c2)CC1=O` (stereo not drawn) | 17.76 | 10.48 |

The first 5 entries again:

structure,Mtb cholesterol medium,Mtb glucose medium
O=C(O)CCNC(=O)C1(c2cccc(Br)c2)CCOCC1,-10.82,11.26
CN1CCCC2(CCN(c3cc(C(F)(F)F)nc(N(C)C)n3)C2)C1=O (stereo not drawn),-10.75,-2.927 & 10.8
CS(=O)(=O)N1CCCC(c2cccc(-c3ccccc3F)n2)C1 (stereo not drawn),0.7469 & 4.152,-3.395
Cn1ccnc1CN1CCCN(C(=O)CC(C2CC2)C2CC2)CC1,-0.1184,17.35
N#Cc1ccc(F)c(CN(CC(=O)N2CCCC2)CC2CCCO2)c1 (stereo not drawn),-1.445,-3.122

The values are deposited in ChEMBL (CHEMBL3988442, “University of Dundee, Small-Polar-MMV Screening Library” (2021)).